No constants are given. Whether binding was seen depends on the method and setting. In cells and extracts the contact can be indirect. Some results given as binding are weak or reduced against the parent protein; the word gives no strength.
Target: SMARCE1 (human (endogenous in HS-SY-II and Yamato)) (UniProt Q969G3)
Test: co-IP; anti-BAF57/SMARCE1 antibody (5 ug) with Protein A Sepharose on 500 ug nuclear lysate of HS-SY-II and Yamato cells transfected with 6His-SUMO2; untreated or 100 nM TAK-981 for 36 h; Pierce IP lysis buffer with NEM; 4 C overnight; normal rabbit IgG as control

Chains of the proteins cited; added tags and fusions are not shown.
UniProt Q969G3: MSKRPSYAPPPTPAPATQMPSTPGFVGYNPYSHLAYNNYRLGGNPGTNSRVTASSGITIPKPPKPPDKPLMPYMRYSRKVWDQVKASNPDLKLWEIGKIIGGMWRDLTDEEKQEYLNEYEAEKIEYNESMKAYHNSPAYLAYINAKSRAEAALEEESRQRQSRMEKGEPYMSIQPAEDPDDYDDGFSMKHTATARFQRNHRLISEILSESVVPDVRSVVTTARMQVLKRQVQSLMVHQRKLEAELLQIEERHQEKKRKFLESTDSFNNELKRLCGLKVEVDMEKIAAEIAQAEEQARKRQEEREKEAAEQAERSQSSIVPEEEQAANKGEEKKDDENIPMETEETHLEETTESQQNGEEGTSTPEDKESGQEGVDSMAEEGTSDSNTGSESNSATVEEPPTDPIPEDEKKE
UniProt Q86U86: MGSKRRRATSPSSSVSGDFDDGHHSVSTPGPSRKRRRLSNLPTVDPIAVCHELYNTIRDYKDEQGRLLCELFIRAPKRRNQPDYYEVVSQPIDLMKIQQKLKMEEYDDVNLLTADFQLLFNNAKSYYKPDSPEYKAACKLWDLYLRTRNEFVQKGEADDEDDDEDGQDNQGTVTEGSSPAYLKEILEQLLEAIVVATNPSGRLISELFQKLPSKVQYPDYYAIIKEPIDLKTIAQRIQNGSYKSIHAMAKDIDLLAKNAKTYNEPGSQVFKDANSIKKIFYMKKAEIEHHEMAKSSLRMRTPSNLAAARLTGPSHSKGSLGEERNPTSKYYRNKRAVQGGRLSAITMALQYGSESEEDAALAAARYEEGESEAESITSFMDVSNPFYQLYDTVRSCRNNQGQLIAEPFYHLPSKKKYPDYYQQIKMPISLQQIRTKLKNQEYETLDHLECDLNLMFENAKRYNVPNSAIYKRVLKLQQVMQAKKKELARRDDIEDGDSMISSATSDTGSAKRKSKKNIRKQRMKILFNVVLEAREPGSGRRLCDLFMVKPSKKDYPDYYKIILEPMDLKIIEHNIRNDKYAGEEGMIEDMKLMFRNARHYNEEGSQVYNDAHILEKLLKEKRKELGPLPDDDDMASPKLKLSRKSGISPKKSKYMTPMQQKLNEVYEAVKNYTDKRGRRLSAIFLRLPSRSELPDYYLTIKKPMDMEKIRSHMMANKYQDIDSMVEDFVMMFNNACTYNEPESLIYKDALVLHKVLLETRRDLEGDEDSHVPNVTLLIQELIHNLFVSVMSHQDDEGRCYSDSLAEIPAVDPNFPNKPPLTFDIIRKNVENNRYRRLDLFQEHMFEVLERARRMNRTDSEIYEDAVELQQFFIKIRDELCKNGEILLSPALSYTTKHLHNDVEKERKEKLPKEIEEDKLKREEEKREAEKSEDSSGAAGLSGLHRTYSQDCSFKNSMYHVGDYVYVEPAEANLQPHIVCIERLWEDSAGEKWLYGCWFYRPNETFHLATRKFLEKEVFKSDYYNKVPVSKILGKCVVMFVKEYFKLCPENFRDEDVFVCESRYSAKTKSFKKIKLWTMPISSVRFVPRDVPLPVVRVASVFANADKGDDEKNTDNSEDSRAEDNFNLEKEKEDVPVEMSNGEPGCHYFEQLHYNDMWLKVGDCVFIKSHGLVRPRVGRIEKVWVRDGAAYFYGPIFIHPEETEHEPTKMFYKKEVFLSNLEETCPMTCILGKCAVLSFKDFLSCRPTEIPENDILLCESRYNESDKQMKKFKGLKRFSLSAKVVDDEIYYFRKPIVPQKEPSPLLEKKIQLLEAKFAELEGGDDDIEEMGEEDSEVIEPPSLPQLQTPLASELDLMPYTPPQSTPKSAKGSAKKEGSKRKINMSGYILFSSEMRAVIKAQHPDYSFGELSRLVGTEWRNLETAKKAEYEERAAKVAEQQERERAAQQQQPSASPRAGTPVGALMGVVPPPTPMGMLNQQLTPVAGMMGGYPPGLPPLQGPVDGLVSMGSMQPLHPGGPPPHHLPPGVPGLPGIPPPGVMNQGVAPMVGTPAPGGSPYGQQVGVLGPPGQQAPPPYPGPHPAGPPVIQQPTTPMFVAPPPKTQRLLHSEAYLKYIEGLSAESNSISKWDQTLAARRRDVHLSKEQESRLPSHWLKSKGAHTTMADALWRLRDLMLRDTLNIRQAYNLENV
UniProt Q12824: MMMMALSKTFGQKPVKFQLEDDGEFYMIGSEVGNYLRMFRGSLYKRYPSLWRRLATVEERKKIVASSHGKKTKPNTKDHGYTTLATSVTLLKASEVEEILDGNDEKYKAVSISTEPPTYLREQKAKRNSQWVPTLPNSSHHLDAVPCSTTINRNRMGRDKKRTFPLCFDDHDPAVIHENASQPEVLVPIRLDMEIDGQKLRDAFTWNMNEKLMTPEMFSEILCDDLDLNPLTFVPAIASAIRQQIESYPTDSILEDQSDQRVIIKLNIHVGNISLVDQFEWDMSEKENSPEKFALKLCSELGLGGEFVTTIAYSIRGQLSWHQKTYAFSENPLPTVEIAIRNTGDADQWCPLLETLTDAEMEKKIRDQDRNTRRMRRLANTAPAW

PBRM1 (from UniProt Q86U86 1-1689)
binding: binds

SMARCB1 (BAF47) (from UniProt Q12824 1-385)
binding: binds

— article PMC12589557
